# According to patent publication US9127233B2, “Device and method for solubilizing, separating, removing and reacting carboxylic acids in oils, fats, aqueous or organic solutions by means of micro-or nanoemulsification” (priority 2010, dated 2015):
# How the values were obtained:
# [1] = Estimation of the interaction between oleic acid and the test substance; assay type: physicochemical
# [2] = Dynamic laser light scattering (DLS) of oleic acid micro-/nanoemulsions; assay type: physicochemical
smiles,measurement,setting,value
"CN(C)C(=N)NC(=N)N.Cl [1,1-Dimethylbiguanide hydrochloride, reference compound]",Interaction with Oleic Acid,[1],"X, E"
same,Mean Size by Intensity,"[2]; DLS, emulsion with oleic acid",106 nm
same,Part,[2]; percentage of the peak in the sample,89.4%
